These are yes or no findings as the source states them, for the method shown. Binding seen in cells or lysates may run through a third protein. Some entries that bind do so weakly or less than the wild type. Tags and fused reporters may be left off the sequences shown.
Experiments:
[1] = biological target: T1, Flag-tagged LMO4 (full-length) (UniProt P61968); assay: co-immunoprecipitation (anti-Flag) / anti-HA western blot, transfected 293T cells
T1 sequence (looked up): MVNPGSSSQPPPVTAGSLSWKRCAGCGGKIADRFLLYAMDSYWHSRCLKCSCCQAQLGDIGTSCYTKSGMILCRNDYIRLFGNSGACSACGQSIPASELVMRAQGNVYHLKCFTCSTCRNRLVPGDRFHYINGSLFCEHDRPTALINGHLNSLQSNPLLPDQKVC

The chains behind the UniProt entries cited, without tags or fusion partners. Residues count along the entry.
UniProt Q99708, residues 45-897: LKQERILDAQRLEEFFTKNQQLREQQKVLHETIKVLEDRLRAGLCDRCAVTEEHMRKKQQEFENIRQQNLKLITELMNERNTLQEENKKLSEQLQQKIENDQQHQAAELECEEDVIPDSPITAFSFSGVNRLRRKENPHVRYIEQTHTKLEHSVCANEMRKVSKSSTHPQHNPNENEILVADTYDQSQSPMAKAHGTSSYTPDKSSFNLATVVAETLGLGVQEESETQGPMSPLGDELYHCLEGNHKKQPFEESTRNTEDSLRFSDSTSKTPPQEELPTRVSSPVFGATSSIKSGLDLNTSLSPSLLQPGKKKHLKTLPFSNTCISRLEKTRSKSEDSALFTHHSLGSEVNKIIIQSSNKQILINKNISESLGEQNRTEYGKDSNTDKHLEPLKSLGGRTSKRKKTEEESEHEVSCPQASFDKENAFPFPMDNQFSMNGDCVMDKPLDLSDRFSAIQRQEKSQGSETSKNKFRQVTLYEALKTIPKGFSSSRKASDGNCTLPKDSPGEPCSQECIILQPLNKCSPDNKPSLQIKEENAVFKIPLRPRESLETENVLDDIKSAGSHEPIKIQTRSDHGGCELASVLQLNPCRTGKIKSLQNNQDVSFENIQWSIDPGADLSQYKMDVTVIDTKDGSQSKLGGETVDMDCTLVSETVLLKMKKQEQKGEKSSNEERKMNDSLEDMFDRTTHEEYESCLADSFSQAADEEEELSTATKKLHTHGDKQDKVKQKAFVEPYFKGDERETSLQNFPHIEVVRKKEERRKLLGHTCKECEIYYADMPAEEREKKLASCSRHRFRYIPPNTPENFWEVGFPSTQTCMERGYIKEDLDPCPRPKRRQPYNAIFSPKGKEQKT
UniProt P38398, residues 1528-1863: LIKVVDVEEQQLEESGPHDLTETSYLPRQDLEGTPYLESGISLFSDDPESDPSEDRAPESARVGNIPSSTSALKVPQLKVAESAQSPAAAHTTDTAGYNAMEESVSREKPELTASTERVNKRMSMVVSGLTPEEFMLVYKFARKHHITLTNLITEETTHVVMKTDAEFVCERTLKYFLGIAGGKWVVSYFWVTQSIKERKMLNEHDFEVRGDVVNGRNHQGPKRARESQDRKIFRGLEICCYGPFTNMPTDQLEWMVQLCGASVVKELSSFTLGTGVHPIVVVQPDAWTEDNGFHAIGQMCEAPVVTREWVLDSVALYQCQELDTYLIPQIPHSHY

[2] = biological target: T1, Flag-tagged LMO4 (full-length); assay: co-immunoprecipitation (anti-Flag) / anti-HA western blot, transfected 293T cells (FIG. 10A)

| Substance | binding [1] | binding [2] |
| --- | --- | --- |
| CtIP (residues 45-897), human, from pCMV-HA-ns311 (from UniProt Q99708 45-897) | binds | – |
| HA-tagged BRCA1 SZ fragment (residues 1528-1863) (from UniProt P38398 1528-1863) | binds | binds |
